# Measured values taken from the supplement of paper PMC12823440, “Inhibitors supercharge kinase turnover through native proteolytic circuits” (Nature, 2025).
# Amino acid sequences for entries named in this document (tags omitted).
# UniProt Q15418, whole entry: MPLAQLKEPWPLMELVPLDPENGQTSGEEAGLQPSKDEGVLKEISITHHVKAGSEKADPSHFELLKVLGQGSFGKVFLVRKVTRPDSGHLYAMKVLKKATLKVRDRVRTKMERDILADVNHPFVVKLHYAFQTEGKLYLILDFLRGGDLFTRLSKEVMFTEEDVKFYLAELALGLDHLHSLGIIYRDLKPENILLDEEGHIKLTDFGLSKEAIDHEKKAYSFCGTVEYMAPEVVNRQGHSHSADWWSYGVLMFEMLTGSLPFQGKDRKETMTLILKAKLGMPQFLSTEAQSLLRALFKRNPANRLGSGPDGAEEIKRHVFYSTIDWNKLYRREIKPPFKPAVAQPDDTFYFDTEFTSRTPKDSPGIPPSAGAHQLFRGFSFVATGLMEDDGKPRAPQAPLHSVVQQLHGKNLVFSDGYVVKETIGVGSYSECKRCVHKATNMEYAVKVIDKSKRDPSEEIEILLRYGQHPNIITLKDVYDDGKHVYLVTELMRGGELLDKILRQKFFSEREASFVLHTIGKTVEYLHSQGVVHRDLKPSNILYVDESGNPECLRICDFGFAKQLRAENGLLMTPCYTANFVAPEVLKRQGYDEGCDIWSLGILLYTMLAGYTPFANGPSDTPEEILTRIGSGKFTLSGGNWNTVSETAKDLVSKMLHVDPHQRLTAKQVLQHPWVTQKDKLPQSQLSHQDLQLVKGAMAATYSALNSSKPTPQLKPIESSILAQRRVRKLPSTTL
# Where a name gives a salt, the structure may show the parent alone. The list shows a part of the results. The calls rarely recur for the same compound in another form.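 Kinases were expressed as nanoluciferase fusions in K562 cells and luminescence was read every 4 h between 2 and 18 h as percent of control, DMSO set to 100% and a positive control to 0%. A time point counts as decreased when the signal drops significantly (2 sigma). The hit call is the authors' own, does not follow from the count of time points alone, and its rule is not shown.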
# Biological target: RPS6KA1 (UniProt Q15418)
# Experiment: number of time points (of 5) at which kinase-Nluc abundance scored as decreased, DMSO-normalised (count); higher = more persistent destabilization
# Conditions: K562; 2-18 h
row,Compound,number of time points
1,COc1ccc(Cn2cc(C(=O)N=Nc3c(O)[nH]c4c(C)cccc34)nn2)cc1 [MARK4 inhibitor 1] (10 µM),0
2,COc1cc([N+](=O)[O-])ccc1S(=O)(=O)N1C[C@@H](CN2CCN(c3ccccn3)CC2)[C@H](c2cccc(F)c2)C1 (relative stereo) (10 µM),0
3,Cc1cc(Nc2nc(N[C@@H](C)c3ccc(F)cc3)c(C#N)cc2F)n[nH]1 (10 µM),0
4,Cc1ccc(S(=O)(=O)/C=C/C#N)cc1 (10 µM),0
5,Cc1c(CN2CCN(S(C)(=O)=O)CC2)sc2c(N3CCOCC3)nc(-c3cnc(N)nc3)nc12 (2.5 µM),0
6,COc1ccc(-c2ccc3c(N4CCOC[C@@H]4C)nc(N4CCOC[C@@H]4C)nc3n2)cc1CO (2.5 µM),0
7,CCN(CC)S(=O)(=O)c1ccc(OC)c(N2CCN(C(=O)c3ccc(F)cc3C(F)(F)F)CC2)c1 (10 µM),0
8,CC1CN(C(=O)Nc2ccc(Cl)c(Cl)c2)C(=Nc2ccc(F)cc2)S1 (centres undefined) (10 µM),0
9,COCCO[C@@H]1[C@H](O)[C@@H](CO)O[C@H]1n1cnc2c(=O)[nH]c(N)nc21 [2′-O-(2-Methoxyethyl)guanosine] (10 µM),0
10,COc1cc(F)c(F)c(Nc2ccc(I)cc2F)c1NS(=O)(=O)C1(C[C@H](O)CO)CC1 [Refametinib] (10 µM),0
11,CC(C)=CC[C@H](O)C1=CC(=O)c2c(O)ccc(O)c2C1=O [(-)-Alkannin] (2.5 µM),0
12,C[C@@]1(O)CCC[C@H]1n1c(=O)c(C(F)F)cc2cnc(NC3CCN(S(C)(=O)=O)CC3)nc21 (2.5 µM),0
13,CS(=O)(=O)c1ccc(-c2noc(C(F)(F)F)c2-c2ccccc2)cc1 (10 µM),0
14,COc1ccc2[nH]cc(/C=C3\C(=O)Nc4ccc(NC(=O)CCN5CCCCC5)cc43)c2c1 (2.5 µM),0
15,O=C(Nc1ccc(F)cc1F)[C@H](NC(=S)Nc1cc(C(F)(F)F)cc(C(F)(F)F)c1)c1ccccc1 (2.5 µM),0
16,CC(C)CN[C@H]1CS(=O)(=O)C[C@@H]1S(=O)(=O)c1ccc(Cl)cc1 (10 µM),0
17,COc1ccc(C2CC(c3ccccc3)=NN2c2ccc(S(N)(=O)=O)cc2)cc1 (centres undefined) (10 µM),0
18,CC/C=C\C/C=C\C/C=C\CCCCCCCC(=O)O [α-Linolenic acid] (10 µM),0
19,O=C(Nc1nc2ccccc2[nH]1)c1cccc(-n2cccc2)c1 (10 µM),0
20,COc1ncc(-c2nc(N3CCOCC3)nc3c(CN4CCC(C(C)(C)O)CC4)cc(F)cc23)cc1NS(C)(=O)=O [Linperlisib] (10 µM),0

row,Compound,number of time points
1,COc1ccc([C@H]2c3[nH]c4ccc(Cl)cc4c3CCN2C(=O)Oc2ccc(Cl)cc2)cc1 (2.5 µM),0
2,COc1c(NC(=O)C(=O)c2ccc(OCCN3CCOCC3)c3ccccc23)cc(C(C)(C)C)cc1NS(C)(=O)=O (2.5 µM),0
3,COc1ccc([C@@H]2CC(=O)c3c(O)cc(O)cc3O2)cc1O [Hesperetin] (10 µM),0
4,N#Cc1cccc(-c2c[nH]c3ncnc(N4CCOCC4)c23)c1 (10 µM),0
5,C/C(=C1/C(=O)Nc2ccc(NC(N)=O)cc21)c1ccc[nH]1 (10 µM),0
6,Nc1ncnc2c1c(-c1ccc(Oc3ccccc3)cc1)nn2C1CCNCC1 [N-piperidine Ibrutinib (hydrochloride)] (10 µM),0
7,N#Cc1ccc2ncnc(NC3CCC(N4CCOCC4)CC3)c2c1 (centres undefined) (10 µM),0
8,CC(=O)c1c(C)c2cnc(Nc3ccc(N4CCN(CCCCNC(=O)COc5cccc6c5C(=O)N(C5CCC(=O)NC5=O)C6=O)CC4)cn3)nc2n(C2CCCC2)c1=O (centres undefined) (10 µM),0
9,CC(C)=CC(=O)CCC(=O)N1CCN(Cc2cc3nc(-c4cccc5[nH]ncc45)nc(N4CCOCC4)c3s2)CC1 (10 µM),0
10,Cc1ccc(S(=O)(=O)Nc2ccccc2C=Nc2ccccc2NS(=O)(=O)c2ccc(C)cc2)cc1 (10 µM),0
11,NCCN1CCN(C/C=C/C(=O)N2CCC[C@@H](n3nc(-c4ccc(Oc5ccccc5)cc4)c4c(N)ncnc43)C2)CC1 [Ibrutinib-MPEA] (10 µM),0
12,O=C(CNC(=O)c1ccc(-c2ccccc2)cc1)NC1CCCc2ccccc21 (centres undefined) [TAO Kinase inhibitor 1] (10 µM),0
13,CC(C)CN(CC(=O)N1CCN(CC(OCc2ccc3ccccc3c2)c2ccc(Cl)cc2Cl)CC1)CC(C)C (centres undefined) [LYN-1604 (dihydrochloride)] (2.5 µM),0
14,CO[C@H]1C[C@@H]2CC[C@@H](C)[C@@](O)(O2)C(=O)C(=O)N2CCCC[C@H]2C(=O)O[C@H]([C@H](C)C[C@@H]2CC[C@@H](O)[C@H](OC)C2)CC(=O)[C@H](C)/C=C(\C)[C@@H](O)[C@@H](OC)C(=O)[C@H](C)C[C@H](C)/C=C/C=C/C=C/1C [Rapamycin] (10 µM),0
15,Cc1ccc(Nc2cc(-c3cccc(N4C(=O)c5ccccc5C4=O)c3)ncn2)cc1NS(C)(=O)=O (10 µM),0
16,Nc1cc(Nc2ccc(S(N)(=O)=O)cc2)ncn1 (10 µM),0
17,CCOc1cc(C(=O)N2CCC(N3CCN(C)CC3)CC2)ccc1Nc1ncc2c(n1)N(C1CCCC1)c1ccccc1C(=O)N2C (10 µM),0
18,COCCOc1ccc(-c2cn(-c3ccccc3)c3nc[nH]c(=O)c23)cc1 (10 µM),0
19,Cc1cc(O)c(C(C)C)cc1N=O [Poloxime] (10 µM),0

# Two neighbouring compounds from above, quoted:
row,Compound,number of time points
6,Nc1ncnc2c1c(-c1ccc(Oc3ccccc3)cc1)nn2C1CCNCC1 [N-piperidine Ibrutinib (hydrochloride)] (10 µM),0
7,N#Cc1ccc2ncnc(NC3CCC(N4CCOCC4)CC3)c2c1 (centres undefined) (10 µM),0
